The values below come from PMC6814613.

By UniProt entry, the sequences of proteins in these tests, tags left out. Residues count along the entry.
UniProt P16234, residues 24-1089: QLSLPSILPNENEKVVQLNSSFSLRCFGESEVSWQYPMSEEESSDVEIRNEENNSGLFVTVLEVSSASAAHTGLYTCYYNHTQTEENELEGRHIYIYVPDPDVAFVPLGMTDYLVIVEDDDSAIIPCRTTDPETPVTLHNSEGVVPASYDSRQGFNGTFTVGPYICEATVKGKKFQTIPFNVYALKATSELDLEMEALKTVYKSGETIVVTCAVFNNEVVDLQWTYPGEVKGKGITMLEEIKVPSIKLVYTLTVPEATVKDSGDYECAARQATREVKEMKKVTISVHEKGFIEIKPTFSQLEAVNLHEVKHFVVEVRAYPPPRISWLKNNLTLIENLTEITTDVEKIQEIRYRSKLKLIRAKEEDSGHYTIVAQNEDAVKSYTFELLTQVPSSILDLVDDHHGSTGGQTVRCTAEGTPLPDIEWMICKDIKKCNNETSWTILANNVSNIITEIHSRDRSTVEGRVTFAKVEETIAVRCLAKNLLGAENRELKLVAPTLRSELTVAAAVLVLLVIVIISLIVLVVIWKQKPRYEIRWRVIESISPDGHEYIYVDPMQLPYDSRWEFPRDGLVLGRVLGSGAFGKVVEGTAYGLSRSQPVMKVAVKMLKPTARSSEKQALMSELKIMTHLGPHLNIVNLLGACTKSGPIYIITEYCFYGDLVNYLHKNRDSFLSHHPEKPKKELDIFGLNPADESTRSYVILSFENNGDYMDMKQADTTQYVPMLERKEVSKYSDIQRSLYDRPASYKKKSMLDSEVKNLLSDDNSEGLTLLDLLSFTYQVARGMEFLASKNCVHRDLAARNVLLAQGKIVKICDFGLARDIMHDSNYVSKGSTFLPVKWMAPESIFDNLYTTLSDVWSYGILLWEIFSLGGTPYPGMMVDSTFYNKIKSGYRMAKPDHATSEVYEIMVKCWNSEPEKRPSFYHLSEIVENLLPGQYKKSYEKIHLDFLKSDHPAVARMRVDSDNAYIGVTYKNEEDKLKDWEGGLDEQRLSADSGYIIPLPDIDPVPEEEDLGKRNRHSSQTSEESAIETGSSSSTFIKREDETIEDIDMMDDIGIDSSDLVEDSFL

Results are given in words; binding and its absence hold for the method and conditions named. Binding seen in cells or lysates may run through a third protein. Some binding calls cover weakened binding; strength is not graded here.

Assay [1] deals with T1, Ninjurin 2 (human (endogenous in HT-29, primary human colon cancer cells and human colon cancer tissue)) (UniProt Q9NZG7).
T1 sequence: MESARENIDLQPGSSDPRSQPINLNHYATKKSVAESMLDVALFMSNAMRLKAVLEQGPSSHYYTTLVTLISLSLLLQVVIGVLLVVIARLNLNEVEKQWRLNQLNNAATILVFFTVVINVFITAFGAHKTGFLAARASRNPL
The assay can be described thus: co-IP; endogenous NINJ2 precipitated with anti-NINJ2 antibody plus protein IgA/G beads from 1000 μg lysate of HT-29 cells or primary human colon cancer cells (pri-Can-1); bound RTKs detected by Western blotting.

The target of assay [2] is T1, Ninjurin 2 (human (endogenous in HT-29, primary human colon cancer cells and human colon cancer tissue)). The assay can be described thus: co-IP; endogenous NINJ2 precipitated with anti-NINJ2 antibody plus protein IgA/G beads from fresh human colon cancer tissue lysates (patients 1-3); bound RTKs detected by Western blotting. In general terms: A western blot detects proteins with antibodies after separation by electrophoresis.

Turning to “PDGFRβ (from UniProt P09619 33-1106) (receptor)”, the binding entry in assay [1] and in assay [2] was “binds” each time.
Regarding “epidermal growth factor receptor (from UniProt P00533 25-1210)”, the binding result in assay [1] and in assay [2] was “binds” each time.
Take “platelet-derived growth factor receptor α (from UniProt P16234 24-1089)”: the binding entry in assay [1] and in assay [2] was “binds” throughout.
